Experimental findings from PubChem BioAssay AID1347423 (Functional Genomics Laboratory (NCATS/FGL), 2020) are described below.

Screen size: about 52,000 sequences; about 210 (0.4%) were called active.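 The calls were made as follows: active = gene whose silencing raises cell survival under the drug, median off-target-corrected z-score across its silencing RNAs 2 or more; inactive = the rest.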 The list shows a part of the results.

The nature of the experiment: Resistance to Poly (ADP-Ribose) Polymerase inhibitor: Gene Identification via Genome-wide siRNA Screen. To be noted: mouse BRCA2 R2336H ES cells, olaparib, CellTiter-Glo viability; active compounds read high. An excerpt: The role of Poly (ADP-Ribose) Polymerase (PARP) proteins in DNA repair has been elegantly utilized for the synthetic lethality-based treatment of BRCA-deficient tumors by PARP inhibitors. PARP inhibitors are now being used for treatment of BRCA-deficient breast and ovarian cancers. […] While several mechanisms of drug resistance have been identified, majority of these tumors develop drug resistance due to unknown causes. To identified novel regulators of chemo-resistance in BRCA2-mutated cells, we performed a genome wide siRNA library screen. We have found ES cells expressing a hypomorphic allele of BRCA2 to be hypersensitive to PAPP inhibitors (such as olaparib). We used ES cells expressing a mutant allele of BRCA2 that has a single amino acid substitution at position 2336 (arginine to histidine, R2336H). The screen was conducted using an Ambion (Thermo) Silencer Mouse Genome siRNA collection. The library targets 17,575 mouse genes with 3 siRNAs per gene. TET2 (E130014J05Rik) was identified as a top candidate.
Transfections were performed in 384 well plates (Corning 3707). Plates were coated with 0.1% gelatin in H2O overnight at ambient temperature. Gelatin solution was aspirated (BioTek EL406) and siRNAs were printed using a Bravo VPrep liquid handler integrated within a BioCel automation platform (Agilent). Cell viability was measured using CellTiter Glo (Promega). For transfections, […] of serum free media containing Lipofectamine RNAiMax […] was added to wells containing siRNA (0.8pmol). Lipid and siRNA were allowed to complex for 45 min at ambient temperature before addition of 1000 cells in DMEM, 30% FBS to yield final transfection mixtures containing 20 nM siRNA in DMEM, 15% FBS. PARPi (olaparib, AZD2281) was added 48 h post-transfection (500 nM) and viability (CellTiter Glo, Promega) was assayed 72 h later on a PerkinElmer Envision 2104 Multilabel plate reader. Ambion Silencer Select Negative Control #2 was incorporated on all screening plates (16 wells) and the median negative control value on each plate was used for normalization. An siRNA targeting Trp53 was used as a positive control. This control yielded a median protective effect of ~1.9 fold versus negative control throughout the screen. The median absolute deviation (MAD) based z-score was calculated for each siRNA. Genes were then ranked by taking the median value for all siRNAs tested against a given gene. Scores were also adjusted for seed-based off-target effects to help deprioritize likely false positives.
For “GGAGCAUGAUCCUUCAUAATT against 4930511I11Rik”, the z-score is inactive: -2.63.

Turning to GCUAUUCCCAUGACGUGUUTT against Gab1, the z-score was inactive: -0.752. With “GGUUUUUGAGCCAUAUCCATT against 4632404H22Rik”, the z-score was inactive: 0.625. Regarding “GGAAGAUGUGAAAUUGCUUTT against 5830468K18Rik”, the z-score was inactive: 0.526. The value for “GGUUGAAGUGGUUUGUCAUTT against 5630401J11Rik” was inactive: 1.1; that for “GCAGACAGCUUCUCACUAUTT against 4930511J11Rik” was inactive: -1.23. For GUGUCAACCUAAGCUUGGCTT against Tlx3, the z-score is inactive: -0.341. As to GGGAAGGGAGACAAGCAAATT against Slc2a10, the z-score is inactive: -0.171. Take “GGACGUAUAUCCUUUUAUGTT against 5430416O09Rik”: the z-score is inactive: 1.76. In the case of “CCCGAAGAGCAAAAAAGAUTT against 1110004F10Rik”, the z-score was inactive: -0.637. For CCAUCAGUAUUCACAACAATT against Usp42, the z-score is inactive: -0.0551. Consider GGUAACAUCUAUAUAUCACTT against Rb1, for which the z-score was inactive: 1.66.

For GGCCAAGAUUAAGUUCUUGTT against Il12rb1, the z-score was inactive: -0.628.

For the sequence ACAAGAUUGGGAUCAUCUATT against Rpl23a, the z-score is inactive: -2.14. In the case of GGUUUUGUACAAAAGGUCCTT against Ube2e2, the z-score was inactive: 1.1. In the case of GCCCAAUCACACCAAGACATT against Doc2b, the z-score was inactive: 0.68. Regarding GGCUGUGUCAUCACCAUCUTT against Bach, the z-score is inactive: -0.217. Turning to UAGAUGCAUGUUCCUCCUCTT against Olfr1158, the z-score is inactive: -1.14. Next, “GCACAACGGUUCGUUGUUATT against 4933427E11Rik”: inactive: 0.543. In the case of GCAUAUUGUGAUAUCAGUGTT against Siglec5, the z-score is inactive: 0.00668. Turning to “CCUUCAAGUACUUUCUCCGTT against 6720485C15Rik”, the z-score was inactive: 1.43. Next, GCACUUAUUUAGAAGACUGTT against Commd3: inactive: -0.13; GGCUAUCUCCAAUUUCAACTT against Tscot: inactive: 0.0251. Consider GGAUUCCUGUUAAAAGUCUTT against Oazin, for which the z-score is inactive: -0.781. In the case of “GGUUUGAAAUAUUGUGGAUTT against 4933411G11”, the z-score is inactive: 0.0173. Consider “GCCAGAGUCAUCUACUUUUTT against 4632413C14Rik”, for which the z-score is inactive: 0.0748. CCUUGAACAUAUAUGUCAUTT against Fem1a: the z-score is inactive: 2.51. Consider “GGACUAAUGGUGUUCACUGTT against 1810048J11Rik”, for which the z-score was inactive: -1.46.

Consider “GCCGUCAUGUCUACAAUAATT against 9030425E11Rik”, for which the z-score is inactive: -0.22. The value for GGUUGUAUAACUCAGAUCUTT against Olfr1311 was inactive: 0.265; that for “GGCGAAGAAAAUUGAAAGATT against 2700082D03Rik” was inactive: 0.489.

For CCUGUUUCUAACAACCACUTT against Isg20, the z-score was inactive: -1.08. In the case of GGCAAAAAGCUCAAAAACATT against Fbxo32, the z-score is inactive: 0.769. For the sequence CCAUGACCUAGGCAGAUAGTT against Tsga8, the z-score is inactive: -1.82. For GCUUUCAUUAAGUCAGAUCTT against BC011209, the z-score is inactive: 1.06. With GCUAACUUACCCAAAGAAATT against Tnfaip3, the z-score is inactive: -0.183. Next, UCGGAAAGGGCCAUGAUAATT against Bola1: inactive: 0.22.

With CGAGUUUGUAAUGAUGCUATT against Cabp4, the z-score was inactive: 0.614.

For the sequence GAAAAGAGUUUCCACGAGATT against Il19, the z-score is inactive: 0.268. On to “GGGCUGCUCACAAUUUAUATT against 2810439K08Rik”, for which the z-score was inactive: 0.974.

In the case of GCAGCUUGCUAAAAAUACATT against Lrrc20, the z-score is inactive: -1.

“GCCCGACAGGAGAUAUUUATT against B230340J04Rik”: the z-score is inactive: -1.19. Consider GCACAAUAAACUUGAUAACTT against D5Wsu46e, for which the z-score was inactive: -1.43. On to GGAUUAUGGAGUCUUAAAGTT against Prdx1, for which the z-score is inactive: 0.391. On to GGCAUCAGCCUUCUCAAAGTT against Mmp21, for which the z-score is inactive: -1.14. Turning to GCAAAAUAGCCCAGUAUAATT against Pax6, the z-score is inactive: -1.14. Regarding “GCUGCAUUACACGUUCUAUTT against 4930590J08Rik”, the z-score was inactive: -0.582.

For GGUAGUUGUUCUAUGUUUUTT against Olfr967, the z-score was inactive: 0.173. As to GCAGAGUCGAAGUGAGAAGTT against Naca, the z-score was inactive: -1.68. Take “GGAAGCUUCGAGGAUGAUGTT against E130307J07Rik”: the z-score was inactive: -2.6. In the case of GGUAGCUCUGAAAAAUGACTT against Sfmbt1, the z-score is inactive: 1.03.

With CCACCAUCUGCUCUAAUCATT against Got2, the z-score was inactive: 0.262. Take “GCCACGAAACAUAGUCACUTT against 1810055G02Rik”: the z-score is inactive: 0.559. GCACAACCAUAAUUCCAAATT against Olfr828: the z-score was inactive: -0.701. Next, GGCUAACUUCCCAUUUAGCTT against Hmga1: inactive: 0.0621; GGUUGCUCAUUACAGUUAATT against Samd10: inactive: 0.596.

Take CGGAUAUCCACAAAUAUCGTT against Atp1b3: the z-score was inactive: 0.241. GCACUUCUACCGGAAAGUUTT against Mad2l1bp: the z-score is inactive: -1.91. The value for GCACAUGCAUAUCUGGAUCTT against Olfr577 was inactive: -0.823; that for GGCAGAACCCUUUGAUGACTT against Fos was inactive: 0.413; that for GGUGAUUCGAAAGAACCUGTT against Sh3md1 was inactive: -0.372. CGAAGGCUUCCCUUUUAUCTT against BC022651: the z-score was inactive: 0.248. On to GACUCUGUGGGUUCAAAAATT against BC008155, for which the z-score is inactive: 2.49. The value for GGACGCGGAGAAGAAAGUUTT against Csda was inactive: 0.133; that for “GCUACAGAAACCCGGGUAGTT against 2300003C06Rik” was inactive: -3.07; that for “GGAAAUGUUGCCGUUGUCCTT against 2810423E13Rik” was inactive: -1.68. For the sequence GGUGGAUAUUGAUAUCAAGTT against Fga, the z-score was inactive: 0.753. In the case of “GGACUUGAGUCUUUGUGGATT against 0610006O14Rik”, the z-score was inactive: 1.6. As for CCAGAUGUGUCGUAACAUATT against Clecsf9, the z-score is inactive: -1.13. Next, CCAUACAUCAGUACUUACCTT against Olfr553: inactive: 0.795; “GCAUAACUUAAACUGCUCATT against C530015C18”: inactive: 0.616. Next, GCCCACAUUUGUGUAAUUCTT against Olfr653: inactive: 0.749; GGUGAUCAGAAAGUACACCTT against Dtx2: inactive: 0.0913; “CCCUGACAGAAGUGGUGAATT against F730038I15Rik”: inactive: -1.65. On to “GCGGAGUCUUUGGCUUAGATT against D330050I23Rik”, for which the z-score was inactive: -1.52. “GCUACAAAUGUGUACCCUUTT against 2010004A03Rik”: the z-score is inactive: -0.864. As to CGAAUAUUGUGUCAGGUAUTT against Ppp4r1, the z-score is inactive: 0.246. Consider GGCAGGACUCUGGAACAAGTT against Slc2a8, for which the z-score was inactive: -0.761.

Take GGUCAGACAACUCAGGAAGTT against Tnfrsf13b: the z-score was inactive: -0.927. GGCCUGUUUUUAAAAAGUCTT against Ddx51: the z-score was inactive: -0.169.

GGGCCAGAAGAAGAGUCGATT against Mllt6: the z-score was inactive: -0.504. For GGAUUAGGUCAUUAUUAGGTT against Kcne3, the z-score was inactive: 1.45. On to GGAGAUCUUCAGUCUCCUUTT against Homer1, for which the z-score was inactive: 1.5. On to GGACAUCCAUCAGUACAGGTT against Hras1, for which the z-score was inactive: 0.731. On to GGUCACAGCAAGUUAAUAATT against Ranbp9, for which the z-score is inactive: -1.82. In the case of CCAAUGUUUUAGGCUUCCGTT against Tulp1, the z-score is inactive: -0.852. With GCUCGAUAUAAUUUCACACTT against Neto1, the z-score was inactive: 0.241. Regarding “CCUUGUGCCAAAUACUUCATT against 5730559C18Rik”, the z-score is inactive: -1.48. GCAAAAACAGGAUCACCCATT against Lrig1: the z-score is inactive: 1.98.

As for CCCUGGACAUUCUAAUUACTT against Lrfn2, the z-score is inactive: -0.259. As to GGAUUCAUAAAAGAAGCAATT against Zfp90, the z-score is inactive: 0.776. For the sequence CCCAGUUUCUCUAGGAAUATT against H2afx, the z-score was inactive: -0.0973.

On to GGUCCGAUACAUCUAAACUTT against Cxcl11, for which the z-score is inactive: -0.359. Take “GCUUUCUUUUAUGGCACGGTT against C330014O21Rik”: the z-score was inactive: 1.79. For “GGCAUCCAUGUGCUCUUUCTT against 1700025D03Rik”, the z-score is inactive: 0.321.

For GGAUUUCUUUGUCAGUACUTT against Il22ra2, the z-score was inactive: -0.901. The value for “GGCUAGAAAACCUCUAUCUTT against 4930442L21Rik” was inactive: -1.17; that for CCUCAACAGUUCCUAAGUUTT against Olfr1275 was inactive: -3.16; that for GGAAAGGUGUGAACAAUUGTT against Myh8 was inactive: -0.122.

With GCAGUUUUGGGCAAUACCUTT against Olfr358, the z-score was inactive: 0.295. In the case of “GGCUUACGAUGAAAAUAAATT against 4930431B11Rik”, the z-score is inactive: -0.359.

Consider GCCAGGUCAAGGCAUACUUTT against Apoa2, for which the z-score is inactive: 0.889.
